According to PubChem BioAssay AID602441 (National Center for Advancing Translational Sciences (NCATS), 2012):
Screen size: about 1,300 compounds; fewer than 10 were called active. About 9% were inconclusive and are not listed. Calls come from the whole dose curve; as a rule, active = well fitted curve in the direction sought with a large enough effect; inconclusive = small, poorly fitted or top-dose-only effect, or another doubt; inactive = no such curve, though single readings can be large or run the other way. Some of the results follow.

assay: qHTS for antagonists of the Thyroid Stimulation Hormone Receptor: Hit Validation in Parental Cell Line; settings: parental HEK293 cells lacking TSHR, counter-screen; series mostly up to 56.9 µM; activity change, negative = inhibition: at the top concentration; note: 0% is about no effect
Summary of the method: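 Counterscreen in untransfected parental HEK-EM 293 cells. Lysate cAMP displaces cAMP-d2 from cryptate-tagged anti-cAMP antibody, and homogeneous TR-FRET is read at 665 nm with 337 nm excitation after stimulation.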

| SMILES | activity change, negative = inhibition |
| --- | --- |
| COc1cccc(OC)c1C(=O)Nc1ccc2c(c1)N(S(=O)(=O)c1cccs1)CCC2 | inactive: 1.27% |
| CCOc1cc(/C=C/c2ccc3cccc([N+](=O)[O-])c3n2)ccc1OCC(=O)N(C)C | inactive: 0.169% |
| COc1ccc(NC(=O)c2c(F)cccc2F)cc1S(=O)(=O)Nc1ccc(Br)cc1 | inactive: -1.38% |
| CS(=O)(=O)c1ncc(Cl)c(C(=O)Nc2ccc3ccccc3c2)n1 | inactive: 2.52% |
| CCOC(=O)COc1ccc(Br)cc1/C=C/c1[nH]c(=O)[nH]c(=O)c1[N+](=O)[O-] | inactive: -4.09% |
| CC(C)(C)c1cc2nc3c(c(=O)n2[nH]1)CN(Cc1ccccc1)C3=O | inactive: -3.97% |
| COc1ccc(-c2nc(NC(=O)c3cc(C(C)(C)C)nn3C)sc2C)cc1 | inactive: -7.16% |
| N#C/C(=N\Nc1ccc(S(=O)(=O)N2CCCCCC2)cc1)C(N)=S | inactive: -4.32% |
| N#C/C(=C\c1ccc(O)c([N+](=O)[O-])c1)c1nc2ccccc2s1 | inactive: -1.07% |
| Cc1ccc(CNC(=O)CSc2nnc3c(n2)[nH]c2ccccc23)cc1 | inactive: 5.85% |
| Cc1ccccc1NC(=O)Cc1nc(COC(=O)c2cccc([N+](=O)[O-])c2)cs1 | inactive: 2.5% |
| Cc1cccc(N2CCN(C(=O)C3(S(=O)(=O)c4ccc(Cl)cc4)CC3)CC2)c1C | inactive: 0.394% |
| O=C(COc1ccc(Cl)cc1)Nc1ncc([N+](=O)[O-])s1 | inactive: -4.58% |
| Cc1nn(S(=O)(=O)c2ccc(F)cc2)c(C)c1S(=O)(=O)N1CCOCC1 | inactive: 1.2% |
| COc1cc(C(C(=O)NCc2ccccc2)N(C(=O)c2snc(C(N)=O)c2N)C2CCCC2)cc(OC)c1OC (stereo not given) | inactive: 4.33% |
| COc1ccc(NC2CCCN(C(=O)CCc3cccc(F)c3)C2)cc1 (stereo not given) | inactive: 2.4% |
| Cc1nn(-c2nc3ccccc3s2)c(N)c1-c1ccccc1 | inactive: -9.47% |
| CC1Cc2ccccc2N1C(=O)COC(=O)/C=C/c1ccc(F)cc1 (stereo not given) | inactive: 3.96% |
| O=C(N=C1SC2CS(=O)(=O)CC2N1c1ccc(F)cc1)C1CC1 (stereo not given) | inactive: 4.97% |
| Cc1nn(Cc2ccc(Cl)cc2)c(C)c1NC(=O)c1noc2c1CCc1ccccc1-2 | inactive: -0.224% |
| Cc1ccc(N2CCN(S(=O)(=O)c3ccc(F)cc3)CC2)c(C)c1 | inactive: 5.16% |
| CCNC(=O)c1ccccc1NC(=O)C1CC(=O)N(C(C)C)C1 (stereo not given) | inactive: 5.32% |

Copied from the list:
activity change, negative = inhibition, CCOc1cc(/C=C/c2ccc3cccc([N+](=O)[O-])c3n2)ccc1OCC(=O)N(C)C is entered as inactive: 0.169%
activity change, negative = inhibition, CCNC(=O)c1ccccc1NC(=O)C1CC(=O)N(C(C)C)C1 (stereo not given) is entered as inactive: 5.32%

Remaining list, next part.

| SMILES | activity change, negative = inhibition |
| --- | --- |
| COc1cccc(-c2cc(C(=O)Nc3ccn(Cc4ccc(C)cc4)n3)no2)c1 | inactive: 0.598% |
| O=[N+]([O-])c1cc(Br)c(O)c(C=Nc2ccc(N3CCOCC3)cc2)c1 | inactive: 2.6% |
| Cn1c(=O)c([N+](=O)[O-])c(Cl)c2ccccc21 | inactive: -7.43% |
| COc1ccc(OCC(=O)NNC(=O)C2CCN(c3ncnc4sc(C)c(C)c34)CC2)cc1 | inactive: 1.9% |
| CC(Oc1ccc(Cl)cc1Cl)C(=O)Nc1cccnc1 (stereo not given) | inactive: 2.55% |
| C=CCN1C=CC(=C/C=C(/C#N)C(=O)OCC)C=C1 | inactive: 1.54% |
| CCSCCc1nnc(NC(=O)Nc2cccc(C(F)(F)F)c2)s1 | inactive: -0.944% |
| O=C(NCCS(=O)(=O)N1CCN(c2ccccc2)CC1)C1CC(=O)N(c2ccccc2)C1 (stereo not given) | inactive: 1.36% |
| CC(=O)N1c2ccc(S(=O)(=O)N3CCC(C(=O)NC(C)c4ccccc4)CC3)cc2CC1C (stereo not given) | inactive: 5.39% |
| Cc1ccc(CCNC(=O)C2CC(c3cc(C(F)(F)F)cc(C(F)(F)F)c3)=NO2)cc1 (stereo not given) | inactive: 3.88% |
| O=C(c1ccc2c(c1)OCO2)N1CCN(S(=O)(=O)c2ccc(Cl)cc2)CC1 | inactive: 2.44% |
| C=C(C)C1CCC(C)=C1COC(=O)Nc1ccccc1 (stereo not given) | inactive: 1.25% |
| CCN(C(=O)CN1C(=O)COc2ccc(S(=O)(=O)N3CCOCC3)cc21)c1ccc(OC)cc1 | inactive: 3.9% |
| Cc1ccc(CN2CCc3c(OCc4ccc(F)cc4)cccc3C2=O)cc1 | inactive: -2.57% |
| CCSc1nsc(NC(=O)Nc2cccc(OC)c2)n1 | inactive: -9.5% |
| CCCCc1c(C)nc2nc(SCc3ccc(Cl)cc3)[nH]n2c1=O | inactive: -0.616% |
| CCc1ccc(-c2nc(SCC(=O)NC3CCCC3)n[nH]2)cc1 | inactive: 0.958% |
| N#Cc1ccc(CN2CCN(C(=O)c3ccc(S(=O)(=O)N4CCCCCC4)cc3)CC2)cc1 | inactive: -5.72% |
| COc1ccc(-c2c(C(F)(F)F)[nH]n3c(=O)cc(-c4ccccc4)nc23)cc1 | inactive: -6.45% |
| Cn1c(N)c(Sc2ccccc2[N+](=O)[O-])c(=O)n(C)c1=O | inactive: 4.24% |
| O=C(OCCN1C(=O)c2cccc3c(N4CCOCC4)ccc(c23)C1=O)c1cccc(Cl)c1 | inactive: 0.616% |
| Oc1ccc(N=Nc2nccs2)c(O)c1 | inactive: -1.15% |

| SMILES | activity change, negative = inhibition |
| --- | --- |
| CC1SCC(=NOCc2ccccc2)CS1 (stereo not given) | inactive: 5.41% |
| CC(=O)c1cccc(NC(=O)CCCSc2ccccc2)c1 | inactive: -0.783% |
| CC1=C(C(=O)OC(C)(C)C)C(c2ccc3ccccc3c2)NC(=O)N1C (stereo not given) | inactive: 5.33% |
| Cc1cccc(OCc2nnc(SCC(=O)N3c4ccccc4CCc4ccccc43)o2)c1 | inactive: 4.76% |
| Cc1cc2oc(=O)cc(CSc3nnc(-c4cccs4)o3)c2cc1C(C)C | inactive: -4.67% |
| O=C(NCCc1ccccc1)c1cccnc1N1CCCCCC1 | inactive: 0.822% |
| O=c1cc(C(F)(F)F)[nH]c2ccc(OC(F)(F)F)cc12 | inactive: 4.01% |
| O=c1c(Sc2ccccc2)c(C(F)(F)F)[nH]n1-c1ccccc1 | inactive: -5.39% |
| CCOc1cc(N2CCOCC2)c(OCC)cc1NC(=O)c1cccc(S(=O)(=O)N2CCOCC2)c1 | inactive: -1.44% |
| O=C(O)c1ccccc1NS(=O)(=O)c1cccc(-n2sc3ccccc3c2=O)c1 | inactive: -0.303% |
| O=S(=O)(c1cc(C(F)(F)F)ccc1Cl)N1CCN(c2ncnc3ccccc23)CC1 | inactive: 0.583% |
| Cc1ccc(S(=O)(=O)N2CCOCC2)cc1N/N=C(\C#N)c1nc2ccccc2[nH]1 | inactive: -3.67% |
| O=C(Nc1cccc(Cl)c1)Nc1nnc(-c2ccncc2)s1 | inactive: -4.39% |
| COCC(C)NC(=O)C1c2ccccc2Oc2ccccc21 (stereo not given) | inactive: 3.44% |
| O=C(Nc1nc(-c2ccc(S(=O)(=O)N3CCCCCC3)cc2)cs1)c1ccccc1 | inactive: -3.18% |
| COCCCn1c(=O)c2sccc2n(Cc2cccc(C)c2)c1=O | inactive: 3.03% |
| Cc1cc(OCc2cc(C(=O)N(C)C(C)c3ccccn3)no2)cc(C)c1Cl (stereo not given) | inactive: -8.07% |
| Clc1ccc(CSc2nnc(CNc3cccc(Cl)c3)o2)cc1 | inactive: -0.379% |
| COc1ccccc1C(=O)Nc1nnc(SCC(=O)NC2CCCC2)s1 | inactive: 1.5% |
| Cn1nnnc1SCC1=C(C(=O)O)N2C(=O)C(NC(=O)C3CC3c3ccccc3)C2SC1 (stereo not given) | inactive: 0.338% |
| Cc1ccc(C(=O)c2c(NC(=O)c3ccccc3)sc(C)c2C)cc1 | inactive: 1.03% |

Two neighbouring compounds from above, quoted:

| SMILES | activity change, negative = inhibition |
| --- | --- |
| CC1Cc2ccccc2N1C(=O)COC(=O)/C=C/c1ccc(F)cc1 (stereo not given) | inactive: 3.96% |
| O=C(N=C1SC2CS(=O)(=O)CC2N1c1ccc(F)cc1)C1CC1 (stereo not given) | inactive: 4.97% |
